We go through one substance from article PMC2848841.

Chains of the proteins cited; added tags and fusions are not shown. A line that says so, or that is headed by a name, gives the form on record, which may keep a tag or linker. Residues count along the entry.
EGFP-M2-APC (15-amino acid repeat region of APC, amino acids 959-1338, fused to EGFP) (P25054, residues 959-1338): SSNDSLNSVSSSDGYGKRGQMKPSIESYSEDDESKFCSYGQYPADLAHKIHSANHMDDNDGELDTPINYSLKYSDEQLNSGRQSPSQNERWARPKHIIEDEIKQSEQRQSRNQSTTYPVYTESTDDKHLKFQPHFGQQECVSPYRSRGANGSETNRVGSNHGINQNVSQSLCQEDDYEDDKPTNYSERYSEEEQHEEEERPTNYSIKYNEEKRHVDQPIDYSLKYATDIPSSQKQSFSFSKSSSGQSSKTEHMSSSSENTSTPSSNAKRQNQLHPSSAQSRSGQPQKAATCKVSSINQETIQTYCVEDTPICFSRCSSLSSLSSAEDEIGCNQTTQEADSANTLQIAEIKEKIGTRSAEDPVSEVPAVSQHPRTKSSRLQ
EGFP-M3-APC (20-amino acid repeat region of APC, amino acids 1211-2075, fused to EGFP) (P25054, residues 1211-2075): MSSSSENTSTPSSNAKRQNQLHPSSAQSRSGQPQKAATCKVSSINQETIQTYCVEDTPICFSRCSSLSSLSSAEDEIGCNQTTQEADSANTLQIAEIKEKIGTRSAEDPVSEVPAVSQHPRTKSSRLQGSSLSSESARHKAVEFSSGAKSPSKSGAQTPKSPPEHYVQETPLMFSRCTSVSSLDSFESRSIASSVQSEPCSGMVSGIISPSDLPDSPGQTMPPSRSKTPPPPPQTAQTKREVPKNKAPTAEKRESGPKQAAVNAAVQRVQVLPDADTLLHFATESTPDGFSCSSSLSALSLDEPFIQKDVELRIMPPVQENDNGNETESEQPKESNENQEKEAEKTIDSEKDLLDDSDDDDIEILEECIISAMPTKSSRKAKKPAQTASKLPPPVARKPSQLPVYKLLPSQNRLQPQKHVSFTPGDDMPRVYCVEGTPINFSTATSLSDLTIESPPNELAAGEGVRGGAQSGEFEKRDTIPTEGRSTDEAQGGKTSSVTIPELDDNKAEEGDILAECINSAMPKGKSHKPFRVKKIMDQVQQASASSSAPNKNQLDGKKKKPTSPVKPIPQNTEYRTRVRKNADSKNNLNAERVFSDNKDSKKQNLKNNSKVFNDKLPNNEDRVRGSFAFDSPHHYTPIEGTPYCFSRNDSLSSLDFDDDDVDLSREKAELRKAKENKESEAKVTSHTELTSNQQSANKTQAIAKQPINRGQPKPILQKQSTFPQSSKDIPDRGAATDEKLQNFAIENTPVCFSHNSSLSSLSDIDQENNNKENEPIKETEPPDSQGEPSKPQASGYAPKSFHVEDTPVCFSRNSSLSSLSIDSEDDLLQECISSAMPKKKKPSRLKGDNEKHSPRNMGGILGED
UniProt Q02880: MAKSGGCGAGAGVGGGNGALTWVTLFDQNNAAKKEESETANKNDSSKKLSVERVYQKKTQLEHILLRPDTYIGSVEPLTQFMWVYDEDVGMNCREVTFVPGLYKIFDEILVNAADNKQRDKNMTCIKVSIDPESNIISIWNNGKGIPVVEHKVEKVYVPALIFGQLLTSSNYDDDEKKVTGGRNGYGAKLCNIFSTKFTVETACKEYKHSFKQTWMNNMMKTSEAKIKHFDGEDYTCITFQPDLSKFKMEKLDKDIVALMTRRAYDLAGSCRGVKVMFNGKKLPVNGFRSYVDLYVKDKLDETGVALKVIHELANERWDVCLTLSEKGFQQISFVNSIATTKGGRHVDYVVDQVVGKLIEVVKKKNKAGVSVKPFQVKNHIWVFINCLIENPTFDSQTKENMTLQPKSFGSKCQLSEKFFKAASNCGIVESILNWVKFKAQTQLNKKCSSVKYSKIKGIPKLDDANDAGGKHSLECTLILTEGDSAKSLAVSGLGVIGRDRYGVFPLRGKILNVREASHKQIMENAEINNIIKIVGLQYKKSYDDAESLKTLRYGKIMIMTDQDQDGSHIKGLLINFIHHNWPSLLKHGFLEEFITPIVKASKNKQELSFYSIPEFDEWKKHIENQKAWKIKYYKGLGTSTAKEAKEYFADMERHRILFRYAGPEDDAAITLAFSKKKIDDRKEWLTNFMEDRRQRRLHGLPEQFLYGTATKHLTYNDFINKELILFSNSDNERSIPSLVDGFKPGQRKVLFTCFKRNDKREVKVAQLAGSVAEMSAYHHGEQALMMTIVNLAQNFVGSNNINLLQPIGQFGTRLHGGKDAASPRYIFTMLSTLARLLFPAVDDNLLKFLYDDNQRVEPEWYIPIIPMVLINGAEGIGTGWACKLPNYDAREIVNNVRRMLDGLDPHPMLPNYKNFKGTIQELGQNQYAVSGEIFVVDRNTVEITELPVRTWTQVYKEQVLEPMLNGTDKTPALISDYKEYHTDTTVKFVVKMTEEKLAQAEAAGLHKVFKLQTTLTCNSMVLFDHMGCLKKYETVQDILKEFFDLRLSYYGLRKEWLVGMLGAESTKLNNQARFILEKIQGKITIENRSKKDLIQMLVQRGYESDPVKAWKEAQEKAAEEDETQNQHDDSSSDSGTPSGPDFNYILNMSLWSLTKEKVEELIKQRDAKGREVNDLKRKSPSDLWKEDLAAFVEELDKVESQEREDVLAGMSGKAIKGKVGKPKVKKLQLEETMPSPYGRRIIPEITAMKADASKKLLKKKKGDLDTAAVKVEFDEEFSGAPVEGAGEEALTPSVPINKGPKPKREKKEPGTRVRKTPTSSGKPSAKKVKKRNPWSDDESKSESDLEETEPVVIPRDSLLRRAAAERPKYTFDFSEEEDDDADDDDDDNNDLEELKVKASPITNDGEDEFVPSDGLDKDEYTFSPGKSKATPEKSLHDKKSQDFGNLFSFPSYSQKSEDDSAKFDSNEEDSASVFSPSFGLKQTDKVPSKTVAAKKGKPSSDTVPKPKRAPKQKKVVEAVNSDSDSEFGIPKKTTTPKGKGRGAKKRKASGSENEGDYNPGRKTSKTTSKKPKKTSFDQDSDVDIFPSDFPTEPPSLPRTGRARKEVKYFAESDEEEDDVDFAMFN

No constants are given. Whether binding was seen depends on the method and setting. In cells and extracts the contact can be indirect.

The target in assay [1] is EGFP-M2-APC (15-amino acid repeat region of APC, amino acids 959-1338, fused to EGFP) (UniProt P25054). In words: co-IP; anti-GFP pAb immunoprecipitates EGFP, EGFP-M2-APC or EGFP-M3-APC from transfected HCT116βw cells; immunoblots for endogenous topo IIα, topo IIβ, β-catenin; three independent experiments.
For assay [2], the target named is EGFP-M3-APC (20-amino acid repeat region of APC, amino acids 1211-2075, fused to EGFP) (UniProt P25054). The assay is described as above.

Turning to “topoisomerase IIβ (endogenous) (from UniProt Q02880 1-1626) (enzyme)”, the binding entry in assay [1] and in assay [2] was “no binding” throughout.
